Values from PubChem BioAssay AID1259279 (Sanger Institute, 2017).
Aim: 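Kinase-wide knock-down seeking synergy with BYL719, cetuximab or trametinib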 (primary screen). System: LS180 human colorectal cancer cells. Reagent: siRNA pool against human genes. Conditions: anchor drug BYL719 at 1 µM, cetuximab at 5 µg/ml or trametinib at 10 nM, or DMSO vehicle only. Measured: 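Cell viability versus a non-targeting pool, as a fraction and as a robust z-score from replicate means, plus a synergy score for each of three drugs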. Direction: viability z-score, no drug: higher = more viable cells after knock-down; viability, no drug: higher = more viable cells. Units: viability, no drug in fraction. Hit rule: 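a knock-down is called active, meaning essential, if its viability z-score in vehicle alone falls below -3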. Meaning of the calls: active = essential (knock-down alone cuts viability); inactive = no change without drug.
The whole screen tested 794 reagents; shown is a part drawn at random. 11 of all reagents (1.4%) count as active. 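Calls reflect knock-down alone in the vehicle arm, not drug synergy.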 Unmarked entries are inactive. Viability is capped at 1. Not all columns of the deposit are shown. Not stated in the record: the amount of reagent, the time to read-out.

With knock-down of CDKN2B, the screen gave viability z-score, no drug 0.86; viability, no drug 1.
After knock-down of PIP5K1B, the screen gave viability z-score, no drug 0.86; viability, no drug 1.
With knock-down of DGKH the results were viability z-score, no drug -1.48; viability, no drug 0.745.
Against CDKN1B the deposit lists viability z-score, no drug 0.706; viability, no drug 0.983.
With knock-down of PTK2B the results were viability z-score, no drug 0.0786; viability, no drug 0.915.
With knock-down of NTN4, the record shows viability z-score, no drug 0.333; viability, no drug 0.943.
STK17B showed viability z-score, no drug -0.417; viability, no drug 0.861.
Against NUP98 the deposit lists viability z-score, no drug -1.65; viability, no drug 0.727.
For PMVK, the entry reads viability z-score, no drug -0.0216; viability, no drug 0.904.
After knock-down of ITPK1, the record shows viability z-score, no drug 0.86; viability, no drug 1.
For CDKL5 the deposit lists viability z-score, no drug 0.383; viability, no drug 0.948.
For PTGS1, the entry reads viability z-score, no drug 0.00242; viability, no drug 0.907.
Silencing of GRK3 gave: viability z-score, no drug 0.86; viability, no drug 1.
For MELK, the entry reads viability z-score, no drug 0.0478; viability, no drug 0.911.
Knock-down of PRKCD resulted in: viability z-score, no drug -2.85; viability, no drug 0.595.
For HK3, the values are viability z-score, no drug -0.494; viability, no drug 0.852.
MED24 gave viability z-score, no drug 0.86; viability, no drug 1.
Depletion of CERK resulted in: viability z-score, no drug 0.825; viability, no drug 0.996.
PDGFRL gave viability z-score, no drug -0.816; viability, no drug 0.817.
Depletion of SYK gave: viability z-score, no drug -2.66; viability, no drug 0.616.
For CDK7, the values are viability z-score, no drug 0.106; viability, no drug 0.918.
With knock-down of PANK1, the record shows viability z-score, no drug 0.86; viability, no drug 1.
DGKK gave viability z-score, no drug 0.86; viability, no drug 1.
Against CSNK2B, the values are viability z-score, no drug -0.77; viability, no drug 0.822.
Against CDK14, the entry reads viability z-score, no drug 0.86; viability, no drug 1.
MAST3 scored viability z-score, no drug 0.86; viability, no drug 1.
AAK1 gave viability z-score, no drug -2.18; viability, no drug 0.668.
With knock-down of PIM2 the results were viability z-score, no drug -1.13; viability, no drug 0.783.
